No constants are given. Whether binding was seen depends on the method and setting. Binding seen in cells or lysates may run through a third protein. A yes stands for co-enrichment or nearness to the bait. Other partners may have been found.
Molecular target: FLAG-tagged FIP200 (not stated (a human plasmid, pMXs-IP-EGFP-hFIP200, is named)) (UniProt Q8TDY2)
Assay: affinity purification with mass spectrometry; HEK293 cells stably expressing FLAG-tagged FIP200, TAP lysis buffer, anti-FLAG resin 16 h at 4 C, eluted with FLAG peptide; SAINT score cutoff 0.89; repeated twice

By UniProt entry, the sequences of proteins in these tests, tags left out.
UniProt Q8TDY2: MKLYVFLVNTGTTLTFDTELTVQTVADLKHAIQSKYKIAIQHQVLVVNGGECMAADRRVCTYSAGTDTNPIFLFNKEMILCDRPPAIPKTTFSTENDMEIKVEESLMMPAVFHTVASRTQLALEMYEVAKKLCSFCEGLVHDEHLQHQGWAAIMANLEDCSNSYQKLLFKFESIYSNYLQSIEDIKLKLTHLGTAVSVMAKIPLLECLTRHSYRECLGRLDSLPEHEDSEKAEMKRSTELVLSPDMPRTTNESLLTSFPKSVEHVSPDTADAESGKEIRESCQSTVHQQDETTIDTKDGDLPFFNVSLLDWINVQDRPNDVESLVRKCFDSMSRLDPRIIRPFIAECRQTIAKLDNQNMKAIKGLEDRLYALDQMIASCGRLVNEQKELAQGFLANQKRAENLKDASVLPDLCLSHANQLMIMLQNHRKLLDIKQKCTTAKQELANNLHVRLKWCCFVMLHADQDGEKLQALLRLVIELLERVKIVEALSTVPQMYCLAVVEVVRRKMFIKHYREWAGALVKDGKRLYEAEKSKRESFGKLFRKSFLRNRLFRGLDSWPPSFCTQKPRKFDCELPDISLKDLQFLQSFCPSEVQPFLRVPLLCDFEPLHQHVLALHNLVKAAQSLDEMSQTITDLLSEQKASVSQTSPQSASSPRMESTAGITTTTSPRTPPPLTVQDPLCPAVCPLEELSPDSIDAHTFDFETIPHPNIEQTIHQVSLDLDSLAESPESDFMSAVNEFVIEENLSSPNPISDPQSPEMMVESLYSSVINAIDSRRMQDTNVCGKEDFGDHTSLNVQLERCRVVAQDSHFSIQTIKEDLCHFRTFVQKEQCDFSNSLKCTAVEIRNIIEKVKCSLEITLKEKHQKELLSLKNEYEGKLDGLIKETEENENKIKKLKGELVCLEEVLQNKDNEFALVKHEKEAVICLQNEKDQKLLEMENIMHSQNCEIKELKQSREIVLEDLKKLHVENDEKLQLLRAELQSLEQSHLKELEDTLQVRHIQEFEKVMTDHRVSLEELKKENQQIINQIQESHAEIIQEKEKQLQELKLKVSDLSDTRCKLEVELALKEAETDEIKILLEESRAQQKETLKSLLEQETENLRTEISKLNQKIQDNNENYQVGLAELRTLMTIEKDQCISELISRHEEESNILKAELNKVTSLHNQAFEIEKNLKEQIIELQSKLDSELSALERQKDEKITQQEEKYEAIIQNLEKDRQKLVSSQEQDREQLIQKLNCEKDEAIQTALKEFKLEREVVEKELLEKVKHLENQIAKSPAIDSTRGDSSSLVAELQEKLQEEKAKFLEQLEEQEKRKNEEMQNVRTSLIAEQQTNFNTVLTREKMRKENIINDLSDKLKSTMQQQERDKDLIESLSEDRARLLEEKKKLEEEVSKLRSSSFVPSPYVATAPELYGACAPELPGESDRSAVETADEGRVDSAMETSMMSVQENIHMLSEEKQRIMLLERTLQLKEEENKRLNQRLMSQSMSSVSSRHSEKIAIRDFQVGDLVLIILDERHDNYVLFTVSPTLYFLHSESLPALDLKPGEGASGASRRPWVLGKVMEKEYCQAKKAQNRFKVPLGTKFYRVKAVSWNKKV
UniProt O95786: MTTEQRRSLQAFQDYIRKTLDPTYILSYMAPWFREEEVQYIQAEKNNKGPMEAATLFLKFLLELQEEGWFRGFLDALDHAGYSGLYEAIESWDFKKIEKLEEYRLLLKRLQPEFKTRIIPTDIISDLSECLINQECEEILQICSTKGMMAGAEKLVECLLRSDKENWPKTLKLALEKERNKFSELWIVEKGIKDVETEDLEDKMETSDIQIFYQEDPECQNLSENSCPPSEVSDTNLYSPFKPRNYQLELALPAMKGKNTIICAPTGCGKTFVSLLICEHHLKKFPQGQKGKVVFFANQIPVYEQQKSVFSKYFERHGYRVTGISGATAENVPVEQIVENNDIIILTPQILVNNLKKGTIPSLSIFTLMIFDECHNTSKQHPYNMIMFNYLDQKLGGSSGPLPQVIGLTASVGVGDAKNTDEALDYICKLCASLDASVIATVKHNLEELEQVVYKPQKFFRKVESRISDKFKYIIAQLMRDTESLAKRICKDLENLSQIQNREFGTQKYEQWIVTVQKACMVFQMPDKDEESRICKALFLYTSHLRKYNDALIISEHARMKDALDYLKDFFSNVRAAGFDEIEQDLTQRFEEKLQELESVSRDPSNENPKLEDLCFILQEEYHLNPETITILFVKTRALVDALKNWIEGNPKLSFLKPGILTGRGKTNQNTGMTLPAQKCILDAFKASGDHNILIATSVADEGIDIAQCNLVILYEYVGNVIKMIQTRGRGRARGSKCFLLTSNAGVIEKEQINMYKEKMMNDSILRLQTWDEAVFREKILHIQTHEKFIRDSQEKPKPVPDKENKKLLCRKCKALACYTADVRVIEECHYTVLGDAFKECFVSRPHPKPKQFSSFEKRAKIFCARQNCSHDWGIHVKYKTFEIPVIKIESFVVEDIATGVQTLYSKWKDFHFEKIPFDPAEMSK

## endogenous RIG-I of HEK293 cells (from UniProt O95786 1-925)
  binding: binds
